This passage reports binding results from patent EP4585618A1.

Sequences of proteins named here, by UniProt entry; tags and fusion partners are left off. A change or cut given only in a name is not applied to a line headed by its entry.
UniProt Q8N423: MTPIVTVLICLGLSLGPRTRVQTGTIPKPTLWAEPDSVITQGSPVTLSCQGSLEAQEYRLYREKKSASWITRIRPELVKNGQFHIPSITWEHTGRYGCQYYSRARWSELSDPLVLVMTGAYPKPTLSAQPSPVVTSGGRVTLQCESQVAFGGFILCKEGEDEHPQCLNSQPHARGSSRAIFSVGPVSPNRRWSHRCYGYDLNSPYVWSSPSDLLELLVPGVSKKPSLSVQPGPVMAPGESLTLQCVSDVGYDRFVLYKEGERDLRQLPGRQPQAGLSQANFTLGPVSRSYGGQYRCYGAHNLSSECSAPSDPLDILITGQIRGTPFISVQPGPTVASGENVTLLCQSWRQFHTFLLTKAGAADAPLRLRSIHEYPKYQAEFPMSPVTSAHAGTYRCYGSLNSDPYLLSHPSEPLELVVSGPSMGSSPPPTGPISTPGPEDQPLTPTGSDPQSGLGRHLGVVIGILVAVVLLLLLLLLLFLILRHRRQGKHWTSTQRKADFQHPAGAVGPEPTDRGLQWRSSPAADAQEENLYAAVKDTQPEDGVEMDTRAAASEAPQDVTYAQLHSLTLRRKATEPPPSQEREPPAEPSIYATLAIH

Test [1] deals with His-tagged ILT4 protein extracellular domain: ILT4-His (human) (UniProt Q8N423). The experiment in a line: screening of chimeric antibodies (ILT4 protein binding, cell binding, ILT4/HLA-G blocking).
The target is the same in test [2]. The experiment in a line: ELISA, coated ILT4-His. In general terms: In an ELISA, binding on a coated surface is turned into a signal by an enzyme label.

Results are given in words; binding and its absence hold for the method and conditions named. Some entries that bind do so weakly or less than the wild type.

B1: chimeric antibody ChP1-E11 (antibody, human IgG4 S228P, kappa, F234A L235A, V domains shown)
VH: EVQLQQSGPELVKPGASVKMSCQASGYTFTDYSIHWVKQSRGASLEWIGYINPNNGVTNYNQKFKGKATLTVNKSSSTAYMELRSLTSEDSAVYYCAREGDSVTTIVVHWYFDVGGTGTTVTVSS
VL: DIQMTQSPASLSVSLGETVTITCRASENIYSNLVWYQQKQGKFPQLLVYAAINLVDGVPSRFSGSGSGTQYSLKINSLQSEDFGSYYCQQFWDTPLTFGAGTKLEIKR
Consider B1, for which the binding entry in test [1] and in test [2] was “binds” in each case.
